The text below walks through data of patent US20230272086A1.

Sequences and labels used below:
B1: Chimeric 7D1 (antibody, human IgG2, kappa, V domains shown)
VH: QVQLQQSGAELVRPGASVTLSCKASGYTFTDYEMHWVKQTPVHGLDWIGTIDPETGDTAYNQKFKGRATLTADKSSSTAYMELSSLTSEDSAVYYCTRYSYTNSPYGMDYWGQGTSVTVSS
VL: DVVMTQTPKFLLVSAGDRVTITCKASQSVSNDVAWYQQKPGQSPKLLIYYASNRYTGVPDRFTGSGYGTDFTFTINTVQAEDLAVYFCQQDYSSPYTFGGGTKLEIKR
B2: Humanized 31C8-1.1 (antibody, human IgG2, kappa, V domains shown)
VH: EVQLVQSGAEVKKPGATVKISCKASGYIFIDSEMHWVQQAPGKGLEWMGAIDPETGDTVYAEKFQGRVTITADKSSSTAYMELSSLRSEDTAVYYCTGSTTDYYFAYWGQGTLVTVSS
VL: DIQMTQSPSSLSASVGDRVTITCRSSKSLLHSNGIIYLYWYQQKPGKAPKLLIYQLSNLASGVPSRFSSSGSGTDFTLTISSLQPEDFATYYCAQNLELPFTFGQGTKVEIKR
B3: Humanized 31C8-1.2 (antibody, human IgG2, kappa, V domains shown)
VH: B2 VH with E1Q, E10K, E62K, Q65K
VL: B2 VL
B4: Chimeric 17E2 (antibody, human IgG2, kappa, V domains shown)
VH: QVQLQQSGAELVRPGASVTLSCKASGYTFTDYEMHWVKQTPVLGLEWIGAIDPETGDTAYNQKFKGKATLTADKSSSTAYMELSSLASEDSAVYYCIRVDSNYDYFDYWGQDTTLTVSS
VL: DIVLTQSPPILSASPGEKVTMTCRASSSVSYMHWYQQKPGSSPKPWIYDTSNLASGVPARFSGSGSGTSYSLTISRVEAEDAATYYCQQWSSNPLTFGAGTKLELKR
B5: Chimeric 26A1 (antibody, human IgG2, kappa, V domains shown)
VH: QVQLQQSGAELVRPGASVTLSCKASDYIFTDSEIHWVKQTLVHGLEWIGAIDPETGDTAYNQKFKGKATLTADKSSSTAYMELSSLTSEGSAVYYCSGSTTDCYFAYWGQGTTLTVSS
VL: DIVMTQAAFSNPVTLGTSASISCRSSKSLLHSNGIIYLYWYLQKPGQSPQLLIYQMSNLASGVPDRFSSSGSGTDFTLRISRVEAEDVGVYYCAQNLELPFTFGSGTKLEIKR
B6: Chimeric 8F4 (antibody, human IgG2, kappa, V domains shown)
VH: B5 VH with D26G, Y27H, S32Y, I34M, H35Q, L41P, I51F, G90D, C103Y, T113S
VL: B5 VL with I2V, A7T
B7: Chimeric 3C6 (antibody, human IgG2, kappa, V domains shown)
VH: QVQLQQSGAEVVRPGASVTLSCKASDYTITDYEMHWVKQTPVHGLEWIGAIDPETGDTAYSQNFKGKATLTADESSSTAYMELSSLTSEDSAVYYCSRSATDYYFASWGQGTTLTVSS
VL: B5 VL with F9I, I21M, I36T, Q47H, R79K
B8: Chimeric 31C8 (antibody, human IgG2, kappa, V domains shown)
VH: B5 VH with A9P, D26G, T30I, I34M, L41P, A59V, Y80S, G90D, S97T, C103Y
VL: B5 VL
B9: GSK3772847 (antibody STLM208 in CN104411333, prepared in-house) (antibody, human IgG2, kappa, V domains shown)
VH: EVQLLESGGGLVQPGGSLRLSCAASGFTFSIYDMIWVRQAPGKGLEWVSSIRGEGGGTYYADSVKGRFTISRDNSKNTLYLQMNSLRAEDTAVYYCARDPWSTEGSFFVLDYWGQGTLVTVSS
VL: EIVLTQSPATLSLSPGERATLSCRASQSVDDDLAWYQQKPGQAPRLLIYDASNRATGIPARFSGSGSGTDFTLTISSLEPEDFAVYYCQQYITAPLTFGQGTKVEIKR

Positions count from the first letter of the chain named. No constants are given. Whether binding was seen depends on the method and setting. Some binding calls cover weakened binding; strength is not graded here.

The first test has as its target cynomolgus monkey ST2 antigen (Cyno-ST2-his, Sino biological, 90915-C08H) (cynomolgus monkey). In words: ELISA, plate coated with Cyno-ST2-his, HRP secondary antibody, OD450. (ELISA stands for enzyme-linked immunosorbent assay.)
B1: the binding entry is listed as “binds”.
On the same count and under the same terms, next, B2: “binds”.
Still for that read-out and setting: next, B3: “binds”.
On the same count and under the same terms, next, B4: “binds”.
As to B5, the binding result is reported as “binds”.
Still for that read-out and setting: next, B6: “binds”; B7: “binds”; B8: “binds”.
With B9, the binding entry is reported as “binds”.

For a further test the target is unchanged. Put plainly: ELISA.
In the case of B1, the binding result is recorded as “binds”.
Still for that read-out and setting: next, B2: “binds”; B3: “binds”.
As to B4, the binding entry was “binds”.
On the same count and under the same terms, next, B5: “binds”.
On the same count and under the same terms, next, B6: “binds”; B7: “binds”; B8: “binds”.
Consider B9, for which the binding entry was “binds”.
